Where a name gives a salt, the structure may show the parent alone. At least one compound was matched to its structure with a doubt left.
Key:
VMAT-2 [1] = target: T1, VMAT-2 (Rattus norvegicus, UniProt Q01827); parameters: purified striatal vesicles prepared from treated rats; from tissue; host or cells: striatum of male Sprague-Dawley rats (synaptic vesicles; P2, P3, S3 fractions); details: rats; Brown et al., 2001a,b; cited from earlier work
VMAT-2 [2] = target: VMAT-2 (Mus musculus, UniProt Q8BRU6); assay: Vesicular [3H]dopamine uptake in striatal vesicles prepared from treated mice; format: in vivo
Experimental: (A. E. Fleckenstein, et al., J. Pharmacol Exp Ther. (1997) 282:834-838). Briefly, fresh tissue was homogenized in ice-cold 0.32 M sucrose. The homogenate was centrifuged (800×g for 12 min; 4° C.), and the supernatant (S1) was carefully removed and centrifuged (22,000×g for 15 min; 4° C.) to obtain the synaptosomal-containing pellet (P2). The resulting P2 were resuspended and homogenized in ice-cold distilled deionized water. Osmolarity was restore by addition 25 mM HEPES and 100 mM potassium tartrate (final concentration; pH 7.5 at 4° C. respectively). […] The resultant S3 removed and MgSO4 added (final concentration of [1 mM] pH 7.5 at 4° C.) and centrifuged at 100,000×g for 45 min. The final P4 were resuspended at 50 mg/ml (original tissue wet weight).

Sequences of proteins named here, by UniProt entry; tags and fusion partners are left off.
UniProt Q01827, whole entry: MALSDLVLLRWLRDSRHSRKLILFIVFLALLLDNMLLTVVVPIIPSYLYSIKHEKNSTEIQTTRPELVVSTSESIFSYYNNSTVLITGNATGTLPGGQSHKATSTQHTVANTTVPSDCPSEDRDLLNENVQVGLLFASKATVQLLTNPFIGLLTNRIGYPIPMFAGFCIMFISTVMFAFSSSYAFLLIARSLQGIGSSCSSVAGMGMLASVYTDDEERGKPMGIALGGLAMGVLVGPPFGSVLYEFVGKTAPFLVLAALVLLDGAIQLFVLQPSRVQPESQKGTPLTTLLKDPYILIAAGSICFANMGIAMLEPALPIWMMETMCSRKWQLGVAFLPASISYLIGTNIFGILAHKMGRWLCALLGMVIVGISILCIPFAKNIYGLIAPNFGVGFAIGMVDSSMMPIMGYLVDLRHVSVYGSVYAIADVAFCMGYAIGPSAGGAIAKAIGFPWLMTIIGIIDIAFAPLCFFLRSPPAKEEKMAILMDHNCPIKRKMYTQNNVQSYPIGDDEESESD
UniProt Q8BRU6, whole entry: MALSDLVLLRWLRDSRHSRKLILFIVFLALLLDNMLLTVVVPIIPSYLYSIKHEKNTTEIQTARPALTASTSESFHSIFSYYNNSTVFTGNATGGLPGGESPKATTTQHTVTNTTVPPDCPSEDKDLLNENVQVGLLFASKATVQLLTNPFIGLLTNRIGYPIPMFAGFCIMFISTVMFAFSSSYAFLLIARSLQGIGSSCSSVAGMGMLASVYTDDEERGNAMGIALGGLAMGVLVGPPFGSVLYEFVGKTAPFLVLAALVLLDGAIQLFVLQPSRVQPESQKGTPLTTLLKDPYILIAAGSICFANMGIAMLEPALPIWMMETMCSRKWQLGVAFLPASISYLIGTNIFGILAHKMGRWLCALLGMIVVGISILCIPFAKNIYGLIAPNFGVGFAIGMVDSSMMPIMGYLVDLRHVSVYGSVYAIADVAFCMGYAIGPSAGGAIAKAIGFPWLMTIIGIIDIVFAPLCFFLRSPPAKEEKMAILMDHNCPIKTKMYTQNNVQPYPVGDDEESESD

VMAT-2 [3] = assay: VMAT-2 immunoreactivity in striatal subcellular fractions (P2, P3, S3) of treated rats (Western blot); format: in vivo, rat; details: 1 h
Experimental: Striatal synaptosomes were prepared from rats decapitated 1 h after treatment as previously described (Fleckenstein et al., 1997). Briefly, striatal tissue was homogenized in cold 0.32 M sucrose and centrifuged (800×g for 12 min; 4° C.). The supernatant (S1) was then centrifuged (22,000×g for 15 min; 4° C.) and the resulting pellet (P2, synaptosomal fraction) was resuspended at 50 mg original wet weight/ml in cold water and a portion saved for western blot analysis. The remainder of the synaptosomal sample was centrifuged for 20 min at 22,000×g (4° C.) to pellet lysed synaptosomal membranes (P3, synaptosomal membrane fraction), which were then resuspended at 50 mg original wet weight/ml and saved for western blot analysis. Prior to resuspension of the plasmalemmal membrane fraction the supernatant (S3, vesicle-enriched fraction) was removed and saved for western blot analysis.
Binding of VMAT-2 antibody was performed using 60 μl aliquots of synaptosomal (P2), synaptosomal membrane (P3), or vesicle-enriched (S3) preparations. Each aliquot was added to 20 μl of loading buffer (final concentration: 2.25% sodium dodecyl sulfate, 18% glycerol, 180 mM Tris base (pH 6.8), 10% β-mercapto-ethanol and bromophenol blue), boiled for 10 min, and loaded on a 10% sodium dodecyl sulfate-polyacrylamide gel. […] Bands on blots were quantified by densitometry using Kodak 1D image-analysis software. […]

VMAT-2 [4] = target: T1, VMAT-2; format: in vivo; parameters: purified striatal vesicles prepared from treated rats; from tissue; host or cells: striatum of male Sprague-Dawley rats (synaptic vesicles; P2, P3, S3 fractions)
Experimental: Osmolarity was restored by addition of N-(2-hydroxyethyl)-piperazine-N′-2-ethanesulfonic acid (HEPES) and potassium tartrate 25 mM and 100 mM (final concentrations; pH 7.5 at 4° C.), respectively.

VMAT-2 [5] = target: T1, VMAT-2; assay: [3H]DHTBZ binding in purified striatal vesicles prepared from treated rats

SMILES | vesicular [3H]DA uptake after administration alone (VMAT-2 [1]) | vesicular dopamine uptake after a single injection (VMAT-2 [2]; methylphenidate 10 mg/kg s.c. or cocaine 30 mg/kg i.p., vesicles prepared 1 h after treatment) | VMAT-2 immunoreactivity in P2 (synaptosomal) fractions (VMAT-2 [3]; cocaine 30 mg/kg i.p. single) | vesicular [3H]DA uptake when rats were concurrently treated with METH (VMAT-2 [4]; rat, in vivo) | effect of antagonist pretreatment on the methamphetamine-induced decrease in vesicular dopamine uptake (VMAT-2 [2]; antagonist 2 mg/kg i.p. prior to each methamphetamine injection (4 x 10 mg/kg s.c.), 1 h) | effect of antagonist pretreatment on the MPD-induced increase in VMAT-2 immunoreactivity in the vesicular subcellular fraction (VMAT-2 [3]; antagonist 0.5 mg/kg i.p. 15 min prior to MPD 40 mg/kg s.c.) | effect of antagonist pretreatment on the METH-induced decrease in vesicular [3H]DA uptake (VMAT-2 [4]; rat, in vivo) | vesicular [3H]DA uptake after antagonist per se (VMAT-2 [4]; rats, antagonist 0.5 mg/kg i.p.) | effect of antagonist pretreatment on the MPD-induced increase in vesicular [3H]DA uptake (VMAT-2 [4]; rats, antagonist 0.5 mg/kg i.p. 15 min prior to MPD 40 mg/kg s.c., 1 h) | [3H]DHTBZ binding after antagonist per se (VMAT-2 [5]; antagonist 0.5 mg/kg i.p.) | effect of antagonist pretreatment on the MPD-induced increase in [3H]DHTBZ binding (VMAT-2 [5]; antagonist 0.5 mg/kg i.p. 15 min prior to MPD 40 mg/kg s.c., 1 h)
COC(=O)[C@H]1[C@@H](OC(=O)c2ccccc2)C[C@@H]2CC[C@H]1N2C [cocaine, (−)cocaine hydrochloride] | increases | increased | no difference | neither treatment increased |  |  |  |  |  |  | 
CN1CCc2cc(Cl)c(O)cc2[C@@H](c2ccccc2)C1 [SCH23390] |  |  |  |  | did not prevent | attenuated | not prevented | did not affect | attenuated | did not affect | attenuated
